Earlier results, collected in patent US20210382068A1, “HLA SINGLE ALLELE LINES” (priority 2018, published 2021).
At least one compound was matched to its structure with a doubt left.

Test system: renal cell carcinoma patients
Settings: daily dose of 50 mg/day; cited from earlier work

For `CCN(CC)CCNC(=O)c1c(C)[nH]c(/C=C2\C(=O)Nc3ccc(F)cc32)c1C` [Sunitinib, sunitinib], the “effect on type-1 immune suppression” value is given as “reverse type-1 immune suppression”.
